Assay results reported in PMC7028737.
Results are given in words; binding and its absence hold for the method and conditions named. Binding seen in cells or lysates may run through a third protein. A yes stands for co-enrichment or nearness to the bait. Other partners may have been found.

By UniProt entry, the sequences of proteins in these tests, tags left out. Where a name states a change or a piece, a line headed by the entry shows the natural chain unless it says otherwise. Chains listed by the source or under a name are the forms on record and can include a tag or linker.
FIR-FLAG (far-upstream element-binding protein (FUBP) 1-interacting repressor) (Q9UHX1, form named): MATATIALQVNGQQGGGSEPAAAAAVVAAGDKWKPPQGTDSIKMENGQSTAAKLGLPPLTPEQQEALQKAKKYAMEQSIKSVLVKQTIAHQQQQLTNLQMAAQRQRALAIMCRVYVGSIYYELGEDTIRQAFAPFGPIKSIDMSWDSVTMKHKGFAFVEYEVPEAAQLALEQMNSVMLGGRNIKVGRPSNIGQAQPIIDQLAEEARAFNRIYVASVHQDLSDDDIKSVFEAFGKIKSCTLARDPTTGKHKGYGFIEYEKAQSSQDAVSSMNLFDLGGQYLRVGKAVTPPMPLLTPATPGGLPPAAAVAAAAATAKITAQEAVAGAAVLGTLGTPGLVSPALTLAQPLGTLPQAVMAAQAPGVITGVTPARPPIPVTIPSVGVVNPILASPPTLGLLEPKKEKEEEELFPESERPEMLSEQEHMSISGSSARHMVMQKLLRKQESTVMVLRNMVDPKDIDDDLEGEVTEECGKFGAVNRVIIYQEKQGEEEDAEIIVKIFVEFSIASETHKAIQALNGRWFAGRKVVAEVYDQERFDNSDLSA

B1: RNA-binding protein 28 (protein, UniProt Q9NW13 1-759)
chain: MAGLTLFVGRLPPSARSEQLEELFSQVGPVKQCFVVTEKGSKACRGFGYVTFSMLEDVQRALKEITTFEGCKINVTVAKKKLRNKTKEKGKNENSECPKKEPKAKKAKVADKKARLIIRNLSFKCSEDDLKTVFAQFGAVLEVNIPRKPDGKMRGFGFVQFKNLLEAGKALKGMNMKEIKGRTVAVDWAVAKDKYKDTQSVSAIGEEKSHESKHQESVKKKGREEEDMEEEENDDDDDDDDEEDGVFDDEDEEEENIESKVTKPVQIQKRAVKRPAPAKSSDHSEEDSDLEESDSIDDGEELAQSDTSTEEQEDKAVQVSNKKKRKLPSDVNEGKTVFIRNLSFDSEEEELGELLQQFGELKYVRIVLHPDTEHSKGCAFAQFMTQEAAQKCLLAASPENEAGGLKLDGRQLKVDLAVTRDEAAKLQTTKVKKPTGTRNLYLAREGLIRAGTKAAEGVSAADMAKRERFELLKHQKLKDQNIFVSRTRLCLHNLPKAVDDKQLRKLLLSATSGEKGVRIKECRVMRDLKGVHGNMKGQSLGYAFAEFQEHEHALKALRLINNNPEIFGPLKRPIVEFSLEDRRKLKMKELRIQRSLQKMRSKPATGEPQKGQPEPAKDQQQKAAQHHTEEQSKVPPEQKRKAGSTSWTGFQTKAEVEQVELPDGKKRRKVLALPSHRGPKIRLRDKGKVKPVHPKKPKPQINQWKQEKQQLSSEQVSRKKAKGNKTETRFNQLVEQYKQKLLGPSKGAPLAKRSKWFDS
B2: Isoform Long of Transformer-2 protein homolog alpha (protein, UniProt Q13595 1-282)
chain: MSDVEENNFEGRESRSQSKSPTGTPARVKSESRSGSRSPSRVSKHSESHSRSRSKSRSRSRRHSHRRYTRSRSHSHSHRRRSRSRSYTPEYRRRRSRSHSPMSNRRRHTGSRANPDPNTCLGVFGLSLYTTERDLREVFSRYGPLSGVNVVYDQRTGRSRGFAFVYFERIDDSKEAMERANGMELDGRRIRVDYSITKRAHTPTPGIYMGRPTHSGGGGGGGGGGGGGGGGRRRDSYYDRGYDRGYDRYEDYDYRYRRRSPSPYYSRYRSRSRSRSYSPRRY
B3: WD-repeat-containing protein 3 (protein, UniProt Q9UNX4 1-943)
chain: MGLTKQYLRYVASAVFGVIGSQKGNIVFVTLRGEKGRYVAVPACEHVFIWDLRKGEKILILQGLKQEVTCLCPSPDGLHLAVGYEDGSIRIFSLLSGEGNVTFNGHKAAITTLKYDQLGGRLASGSKDTDIIVWDVINESGLYRLKGHKDAITQALFLREKNLLVTSGKDTMVKWWDLDTQHCFKTMVGHRTEVWGLVLLSEEKRLITGASDSELRVWDIAYLQEIEDPEEPDPKKIKGSSPGIQDTLEAEDGAFETDEAPEDRILSCRKAGSIMREGRDRVVNLAVDKTGRILACHGTDSVLELFCILSKKEIQKKMDKKMKKARKKAKLHSSKGEEEDPEVNVEMSLQDEIQRVTNIKTSAKIKSFDLIHSPHGELKAVFLLQNNLVELYSLNPSLPTPQPVRTSRITIGGHRSDVRTLSFSSDNIAVLSAAADSIKIWNRSTLQCIRTMTCEYALCSFFVPGDRQVVIGTKTGKLQLYDLASGNLLETIDAHDGALWSMSLSPDQRGFVTGGADKSVKFWDFELVKDENSTQKRLSVKQTRTLQLDEDVLCVSYSPNQKLLAVSLLDCTVKIFYVDTLKFFLSLYGHKLPVICMDISHDGALIATGSADRNVKIWGLDFGDCHKSLFAHDDSVMYLQFVPKSHLFFTAGKDHKIKQWDADKFEHIQTLEGHHQEIWCLAVSPSGDYVVSSSHDKSLRLWERTREPLILEEEREMEREAEYEESVAKEDQPAVPGETQGDSYFTGKKTIETVKAAERIMEAIELYREETAKMKEHKAICKAAGKEVPLPSNPILMAYGSISPSAYVLEIFKGIKSSELEESLLVLPFSYVPDILKLFNEFIQLGSDVELICRCLFFLLRIHFGQITSNQMLVPVIEKLRETTISKVSQVRDVIGFNMAGLDYLKRECEAKSEVMFFADATSHLEEKKRKRKKREKLILTLT
B4: Isoform 1 of Synaptic glycoprotein SC2 (protein, UniProt Q9NZ01 1-308)
chain: MKHYEVEILDAKTREKLCFLDKVEPHATIAEIKNLFTKTHPQWYPARQSLRLDPKGKSLKDEDVLQKLPVGTTATLYFRDLGAQISWVTVFLTEYAGPLFIYLLFYFRVPFIYGHKYDFTSSRHTVVHLACICHSFHYIKRLLETLFVHRFSHGTMPLRNIFKNCTYYWGFAAWMAYYINHPLYTPPTYGAQQVKLALAIFVICQLGNFSIHMALRDLRPAGSKTRKIPYPTKNPFTWLFLLVSCPNYTYEVGSWIGFAIMTQCLPVALFSLVGFTQMTIWAKGKHRSYLKEFRDYPPLRMPIIPFLL
B5: Isoform A of Phosphate carrier protein, mitochondrial (protein, UniProt Q00325 50-362)
chain: AVEEQYSCDYGSGRFFILCGLGGIISCGTTHTALVPLDLVKCRMQVDPQKYKGIFNGFSVTLKEDGVRGLAKGWAPTFLGYSMQGLCKFGFYEVFKVLYSNMLGEENTYLWRTSLYLAASASAEFFADIALAPMEAAKVRIQTQPGYANTLRDAAPKMYKEEGLKAFYKGVAPLWMRQIPYTMMKFACFERTVEALYKFVVPKPRSECSKPEQLVVTFVAGYIAGVFCAIVSHPADSVVSVLNKEKGSSASLVLKRLGFKGVWKGLFARIIMIGTLTALQWFIYDSVKVYFRLPRPPPPEMPESLKKKLGLTQ
B6: ADP/ATP translocase 3 (protein, UniProt P12236 1-298)
chain: MTEQAISFAKDFLAGGIAAAISKTAVAPIERVKLLLQVQHASKQIAADKQYKGIVDCIVRIPKEQGVLSFWRGNLANVIRYFPTQALNFAFKDKYKQIFLGGVDKHTQFWRYFAGNLASGGAAGATSLCFVYPLDFARTRLAADVGKSGTEREFRGLGDCLVKITKSDGIRGLYQGFSVSVQGIIIYRAAYFGVYDTAKGMLPDPKNTHIVVSWMIAQTVTAVAGVVSYPFDTVRRRMMMQSGRKGADIMYTGTVDCWRKIFRDEGGKAFFKGAWSNVLRGMGGAFVLVLYDELKKVI
B7: ATP-dependent RNA helicase DDX50 (protein, UniProt Q9BQ39 1-737)
chain: MPGKLLWGDIMELEAPLEESESQKKERQKSDRRKSRHHYDSDEKSETRENGVTDDLDAPKAKKSKMKEKLNGDTEEGFNRLSDEFSKSHKSRRKDLPNGDIDEYEKKSKRVSSLDTSTHKSSDNKLEETLTREQKEGAFSNFPISEETIKLLKGRGVTYLFPIQVKTFGPVYEGKDLIAQARTGTGKTFSFAIPLIERLQRNQETIKKSRSPKVLVLAPTRELANQVAKDFKDITRKLSVACFYGGTSYQSQINHIRNGIDILVGTPGRIKDHLQSGRLDLSKLRHVVLDEVDQMLDLGFAEQVEDIIHESYKTDSEDNPQTLLFSATCPQWVYKVAKKYMKSRYEQVDLVGKMTQKAATTVEHLAIQCHWSQRPAVIGDVLQVYSGSEGRAIIFCETKKNVTEMAMNPHIKQNAQCLHGDIAQSQREITLKGFREGSFKVLVATNVAARGLDIPEVDLVIQSSPPQDVESYIHRSGRTGRAGRTGICICFYQPRERGQLRYVEQKAGITFKRVGVPSTMDLVKSKSMDAIRSLASVSYAAVDFFRPSAQRLIEEKGAVDALAAALAHISGASSFEPRSLITSDKGFVTMTLESLEEIQDVSCAWKELNRKLSSNAVSQITRMCLLKGNMGVCFDVPTTESERLQAEWHDSDWILSVPAKLPEIEEYYDGNTSSNSRQRSGWSSGRSGRSGRSGGRSGGRSGRQSRQGSRSGSRQDGRRRSGNRNRSRSGGHKRSFD
B8: Isoform 1 of Splicing factor, arginine/serine-rich 7 (protein, UniProt Q16629 1-238)
chain: MSRYGRYGGETKVYVGNLGTGAGKGELERAFSYYGPLRTVWIARNPPGFAFVEFEDPRDAEDAVRGLDGKVICGSRVRVELSTGMPRRSRFDRPPARRPFDPNDRCYECGEKGHYAYDCHRYSRRRRSRSRSRSHSRSRGRRYSRSRSRSRGRRSRSASPRRSRSISLRRSRSASLRRSRSGSIKGSRYFQSPSRSRSRSRSISRPRSSRSKSRSPSPKRSRSPSGSPRRSASPERMD
B9: Plastin-3 (protein, UniProt P13797 1-630)
chain: MDEMATTQISKDELDELKEAFAKVDLNSNGFICDYELHELFKEANMPLPGYKVREIIQKLMLDGDRNKDGKISFDEFVYIFQEVKSSDIAKTFRKAINRKEGICALGGTSELSSEGTQHSYSEEEKYAFVNWINKALENDPDCRHVIPMNPNTDDLFKAVGDGIVLCKMINLSVPDTIDERAINKKKLTPFIIQENLNLALNSASAIGCHVVNIGAEDLRAGKPHLVLGLLWQIIKIGLFADIELSRNEALAALLRDGETLEELMKLSPEELLLRWANFHLENSGWQKINNFSADIKDSKAYFHLLNQIAPKGQKEGEPRIDINMSGFNETDDLKRAESMLQQADKLGCRQFVTPADVVSGNPKLNLAFVANLFNKYPALTKPENQDIDWTLLEGETREERTFRNWMNSLGVNPHVNHLYADLQDALVILQLYERIKVPVDWSKVNKPPYPKLGANMKKLENCNYAVELGKHPAKFSLVGIGGQDLNDGNQTLTLALVWQLMRRYTLNVLEDLGDGQKANDDIIVNWVNRTLSEAGKSTSIQSFKDKTISSSLAVVDLIDAIQPGCINYDLVKSGNLTEDDKHNNAKYAVSMARRIGARVYALPEDLVEVKPKMVMTVFACLMGRGMKRV
B10: ATP-dependent RNA helicase DDX51 (protein, UniProt Q8N8A6 1-666)
chain: MALFYVARYPGPDAAAAAGPEGAEAGAHGRARALLERLQSRARERQQQREPAQTEAAASTEPATRRRRRPRRRRRVNDAEPGSPEAPQGKRRKADGEDAGAESNEEAPGEPSAGSSEEAPGEPSAGSSEEAPGERSTSASAEAAPDGPALEEAAGPLVPGLVLGGFGKRKAPKVQPFLPRWLAEPNCVRRNVTEDLVPIEDIPDVHPDLQKQLRAHGISSYFPVQAAVIPALLESAACGFLVGRGGYRPSDLCVSAPTGSGKTLAFVIPVVQALLSRVVCHIRALVVLPTKELAQQVSKVFNIYTDATPLRVSLVTGQKSLAKEQESLVQKTADGYRCLADIVVATPGRLVDHIDQTPGFSLQQLRFLIIDEADRMIDSMHQSWLPRVVAAAFQSEDPADPCALLQRRQAQAVTAASTCCPQMPLQKLLFSATLTQNPEKLQQLGLHQPRLFSTGLAHRGLEDTDGDGDSGKYAFPVGLTHHYVPCSLSSKPLVVLHLVLEMGFSRVLCFTNSRENSHRLFLLVQAFGGVDVAEFSSRYGPGQRRMILKQFEQGKIQLLISTDATARGIDVQGVELVVNYDAPQYLRTYVHRVGRTARAGKTGQAFTLLLKVQERRFLRMLTEAGAPELQRHELSSKLLQPLVPRYEEALSQLEESVKEERKQRAA
B11: Isoform 1 of 60 S ribosome subunit biogenesis protein NIP7 homolog (protein, UniProt Q9Y221 1-180)
chain: MRPLTEEETRVMFEKIAKYIGENLQLLVDRPDGTYCFRLHNDRVYYVSEKIMKLAANISGDKLVSLGTCFGKFTKTHKFRLHVTALDYLAPYAKYKVWIKPGAEQSFLYGNHVLKSGLGRITENTSQYQGVVVYSMADIPLGFGVAAKSTQDCRKVDPMAIVVFHQADIGEYVRHEETLT

The binders below were run against FIRΔexon2-FLAG (human) (assay: affinity purification with mass spectrometry; Flag-conjugated beads pull down of FIR-FLAG or FIRΔexon2-FLAG from HeLa cells, GeLC-MS / LC-MS; data first obtained with the cell systems of ref. 9 and re-evaluated here).

binding | Binder
binds | B1
binds | B2
binds | B3
binds | B4
binds | B5
binds | B6
binds | B7

The binders below were run against FIR-FLAG (far-upstream element-binding protein (FUBP) 1-interacting repressor) (human) (UniProt Q9UHX1) in the same assay as above.

binding | Binder
binds | B1
binds | B2
binds | B8
binds | B3
binds | B9
binds | B4
binds | B10
binds | B5
binds | B6
binds | B7
binds | B11
